This is an account of results in PMC6393709.

The chains behind the UniProt entries cited, without tags or fusion partners.
UniProt P09874: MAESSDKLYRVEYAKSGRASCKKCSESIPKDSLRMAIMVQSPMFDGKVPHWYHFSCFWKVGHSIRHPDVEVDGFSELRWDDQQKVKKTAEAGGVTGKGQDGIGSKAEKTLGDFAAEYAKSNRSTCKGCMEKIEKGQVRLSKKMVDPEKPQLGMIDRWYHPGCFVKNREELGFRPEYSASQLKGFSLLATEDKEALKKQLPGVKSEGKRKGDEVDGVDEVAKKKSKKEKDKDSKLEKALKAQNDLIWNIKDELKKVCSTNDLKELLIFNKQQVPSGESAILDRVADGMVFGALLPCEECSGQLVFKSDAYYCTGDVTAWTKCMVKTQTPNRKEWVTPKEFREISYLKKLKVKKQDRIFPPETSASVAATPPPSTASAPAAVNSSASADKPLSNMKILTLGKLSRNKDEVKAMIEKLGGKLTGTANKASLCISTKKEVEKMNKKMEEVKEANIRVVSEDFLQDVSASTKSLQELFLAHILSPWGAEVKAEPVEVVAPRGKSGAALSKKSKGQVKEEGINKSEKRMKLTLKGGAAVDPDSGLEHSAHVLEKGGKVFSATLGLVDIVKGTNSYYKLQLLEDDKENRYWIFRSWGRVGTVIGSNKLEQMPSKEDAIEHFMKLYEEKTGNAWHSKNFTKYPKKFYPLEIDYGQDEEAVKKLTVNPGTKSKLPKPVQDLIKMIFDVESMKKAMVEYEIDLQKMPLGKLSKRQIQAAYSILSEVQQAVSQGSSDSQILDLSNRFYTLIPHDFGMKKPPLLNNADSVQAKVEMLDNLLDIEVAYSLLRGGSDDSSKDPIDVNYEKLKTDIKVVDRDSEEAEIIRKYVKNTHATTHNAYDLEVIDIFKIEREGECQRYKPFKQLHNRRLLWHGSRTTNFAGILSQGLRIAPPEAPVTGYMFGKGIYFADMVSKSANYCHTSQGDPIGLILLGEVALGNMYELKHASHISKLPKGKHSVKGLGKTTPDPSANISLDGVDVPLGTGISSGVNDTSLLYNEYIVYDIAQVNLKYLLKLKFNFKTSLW
UniProt Q13136: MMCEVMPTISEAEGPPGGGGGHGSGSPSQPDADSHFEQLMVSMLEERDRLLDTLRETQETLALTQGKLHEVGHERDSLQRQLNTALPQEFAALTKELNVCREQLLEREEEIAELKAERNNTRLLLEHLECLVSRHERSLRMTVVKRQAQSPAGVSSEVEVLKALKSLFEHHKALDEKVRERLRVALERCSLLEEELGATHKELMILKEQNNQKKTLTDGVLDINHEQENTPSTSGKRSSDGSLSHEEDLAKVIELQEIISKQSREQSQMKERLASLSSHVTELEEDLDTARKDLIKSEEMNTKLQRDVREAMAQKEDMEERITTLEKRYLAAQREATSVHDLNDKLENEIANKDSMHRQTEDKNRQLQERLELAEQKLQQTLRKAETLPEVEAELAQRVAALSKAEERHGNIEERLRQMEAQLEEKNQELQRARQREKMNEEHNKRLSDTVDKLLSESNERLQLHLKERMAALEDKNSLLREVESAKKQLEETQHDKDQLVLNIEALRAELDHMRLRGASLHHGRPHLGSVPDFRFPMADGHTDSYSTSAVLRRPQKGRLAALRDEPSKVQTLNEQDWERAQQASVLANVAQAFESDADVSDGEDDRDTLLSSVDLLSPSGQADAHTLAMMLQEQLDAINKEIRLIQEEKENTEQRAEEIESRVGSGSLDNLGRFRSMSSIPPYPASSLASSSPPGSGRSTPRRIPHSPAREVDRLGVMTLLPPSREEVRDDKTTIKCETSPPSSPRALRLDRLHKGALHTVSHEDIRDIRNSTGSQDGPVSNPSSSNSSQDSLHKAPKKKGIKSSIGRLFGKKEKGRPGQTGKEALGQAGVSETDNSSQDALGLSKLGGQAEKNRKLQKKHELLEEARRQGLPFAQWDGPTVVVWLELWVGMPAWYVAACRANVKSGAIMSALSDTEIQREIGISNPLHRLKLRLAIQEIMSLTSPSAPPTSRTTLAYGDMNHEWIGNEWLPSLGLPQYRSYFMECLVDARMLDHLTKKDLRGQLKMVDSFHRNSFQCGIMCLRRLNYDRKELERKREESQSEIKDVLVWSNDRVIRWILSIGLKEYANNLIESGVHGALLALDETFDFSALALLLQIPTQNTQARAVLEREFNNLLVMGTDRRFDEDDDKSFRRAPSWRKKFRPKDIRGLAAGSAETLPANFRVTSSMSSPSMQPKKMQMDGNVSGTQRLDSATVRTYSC
UniProt P00519: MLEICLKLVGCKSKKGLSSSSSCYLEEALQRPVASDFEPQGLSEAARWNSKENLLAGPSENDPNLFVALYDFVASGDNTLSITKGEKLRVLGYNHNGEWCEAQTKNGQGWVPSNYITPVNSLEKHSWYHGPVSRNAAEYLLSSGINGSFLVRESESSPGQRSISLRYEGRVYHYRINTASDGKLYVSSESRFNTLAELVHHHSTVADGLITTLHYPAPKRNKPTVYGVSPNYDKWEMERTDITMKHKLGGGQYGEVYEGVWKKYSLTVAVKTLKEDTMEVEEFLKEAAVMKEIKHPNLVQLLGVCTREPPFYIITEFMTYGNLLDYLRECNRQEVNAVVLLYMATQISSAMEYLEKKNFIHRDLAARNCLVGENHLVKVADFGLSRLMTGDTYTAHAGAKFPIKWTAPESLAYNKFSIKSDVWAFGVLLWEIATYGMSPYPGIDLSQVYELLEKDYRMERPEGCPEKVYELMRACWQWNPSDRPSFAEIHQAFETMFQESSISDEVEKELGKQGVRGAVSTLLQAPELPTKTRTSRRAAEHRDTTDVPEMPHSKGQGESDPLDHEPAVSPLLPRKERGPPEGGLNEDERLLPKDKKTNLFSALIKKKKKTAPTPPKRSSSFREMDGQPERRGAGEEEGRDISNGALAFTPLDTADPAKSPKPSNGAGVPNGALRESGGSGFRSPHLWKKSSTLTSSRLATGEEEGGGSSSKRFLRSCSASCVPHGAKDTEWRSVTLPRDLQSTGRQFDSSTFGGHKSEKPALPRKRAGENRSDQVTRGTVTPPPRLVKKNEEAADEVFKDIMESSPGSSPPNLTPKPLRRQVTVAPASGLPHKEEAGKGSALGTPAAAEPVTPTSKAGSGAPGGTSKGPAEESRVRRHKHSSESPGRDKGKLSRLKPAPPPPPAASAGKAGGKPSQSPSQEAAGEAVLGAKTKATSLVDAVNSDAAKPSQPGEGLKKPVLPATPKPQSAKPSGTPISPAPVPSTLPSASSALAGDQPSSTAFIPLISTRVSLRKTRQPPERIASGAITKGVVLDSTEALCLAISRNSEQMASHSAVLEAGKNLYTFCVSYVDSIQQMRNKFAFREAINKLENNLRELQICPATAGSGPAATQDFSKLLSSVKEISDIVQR

Holding throughout (experiment): co-IP; clarified cell lysates with 1 μg of antibody and protein G plus/protein A-agarose overnight at 4°C (or FLAG affinity purification); western blot
On the technique in general: In western blotting, separated proteins are transferred to a membrane and probed.

The target of experiment [1] is PARP1 (human (endogenous in K562)) (UniProt P09874).
The target in experiment [2] is 3-FLAG-PPFIA1 (protein tyrosine phosphatase, receptor type, f polypeptide (PTPRF), leukocyte common antigen (LAR) interacting protein (liprin), alpha 1) (UniProt Q13136).
In a further experiment the target is ABL1 (UniProt P00519).

Results are given in words; binding and its absence hold for the method and conditions named. In cells and extracts the contact can be indirect. Some entries that bind do so weakly or less than the wild type.

With ABL1 (from UniProt P00519 1-1130), the binding entry in experiment [1] is “binds”.

Take PARP1 (from UniProt P09874 1-1014): the binding result (in experiment [2]; in the experiment with ABL1) was “binds” throughout.

As for “PPFIA1 (detected with anti-PPFIA1 in PARP1 immunoprecipitates) (from UniProt Q13136 1-1202)”, the binding entry in experiment [1] is given as “binds”.
